# Assay results from the supplement of paper PMC9877034.
# Counter-ions that a name gives are not always drawn. The full ranking holds about 1,000 compounds; the median of “cFRET/donor change relative to DMSO, normalised to beta-lapachone positive control (supercomplex I-IV assembly)” is about 0.18, and the lowest 2% start at about -1. Some of the results follow.
# Test system: C2C12 (NDUFB8-AcGFP / COX8A-DsRed-Monomer FRET reporter)
# Assay: cFRET/donor change relative to DMSO, normalised to beta-lapachone positive control (supercomplex I-IV assembly) (fraction of beta-lapachone effect); higher = more respiratory supercomplex assembly
# Details: 40 µM; 24 h
# Description: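 Cells were treated with 40 uM compound for 24 h and imaged on an IN Cell Analyzer 6000. Corrected FRET was divided by donor signal (cFRET/donor) and measured in two replicate experiments. The score is (mean cFRET/donor of compound - mean DMSO) / (mean beta-lapachone 40 uM - mean DMSO). Compounds flagged for prominent cell death, abnormal morphology or decreased cell number were excluded.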
row,Structure (SMILES),cFRET/donor change
1,CC[N+](CC)(CC)CC(=O)Nc1c(C)cccc1C [Lidocaine N-ethyl bromide quaternary salt],0.292
2,"CN(C)CCC(c1ccc(Br)cc1)c1ccccn1 (single isomer, unassigned; (+)) [(+)-Brompheniramine maleate]",0.114
3,"CC(N)(Cc1ccc(O)c(O)c1)C(=O)O (racemic) [(±)-3-(3,4-dihydroxyphenyl)-2-methyl-DL-alanine]",0.707
4,"C#CCn1c(=O)c2c(ncn2C)n(C)c1=O [3,7-Dimethyl-1-propargylxanthine]",0.279
5,Clc1ccc(N2CCN(Cc3cc4ccccn4n3)CC2)cc1,0.359
6,O=C(O)C1=CCCN(CCON=C(c2ccccc2)c2ccccc2)C1 [NO-711 hydrochloride],-0.895
7,O=C1CCCC(=O)C1C(=O)c1ccc(C(F)(F)F)cc1[N+](=O)[O-] [Nitisinone],0.0147
8,COCCc1ccc(OCC(O)CNC(C)C)cc1 (racemic) [(±)-Metoprolol (+)-tartrate],0.301
9,CNC(=N)NCCC[C@H](N)C(=O)O [NG-Monomethyl-L-arginine acetate],0.341
10,CN1Cc2c(N)cccc2C(c2ccccc2)C1 (configuration not stated) [Nomifensine maleate],-0.996
11,NS(=O)(=O)c1ccc(-n2nc(C(F)(F)F)cc2-c2ccc(Cl)cc2)cc1,0.219
12,COc1cccc(C(=O)NCCN2CCN(c3ccc(Cl)cc3)CC2)c1,0.474
13,O=C(c1ccccc1)c1ccc2n1CCC2C(=O)O (configuration not stated) [Ketorolac tris salt],0.472
14,CCN(CC)CCCCCCCCOC(=O)c1cc(OC)c(OC)c(OC)c1 [TMB-8 hydrochloride],0.185
15,CCCCN(CC)c1nc(C)nc2c1c(C)cn2-c1c(C)cc(C)cc1C,0.353
16,O=C(O)CP(=O)(O)O [Phosphonoacetic acid],0.0105
17,Cn1ccc2cc3c(cc21)CCN3C(=O)Nc1cccnc1,-0.716
18,C[C@@H]1C(=O)NC2=Nc3cccc(Cl)c3CN21 [Quazinone],-0.428
19,Cc1cc(N)c2ccccc2[n+]1CCCCCCCCCC[n+]1c(C)cc(N)c2ccccc21 [Dequalinium chloride hydrate],-0.102
20,O=C1C(SCCO)=C(SCCO)C(=O)c2ccccc21,0.938
21,"Nc1ccc2c3c(cccc13)C(=O)NC2=O [4-Amino-1,8-naphthalimide]",-0.148

row,Structure (SMILES),cFRET/donor change
1,CN(C)CCCN1c2ccccc2CCc2ccccc21 [Imipramine hydrochloride],0.511
2,"Cc1cccc(C(=O)NCN2CCN(c3ccccc3C#N)CC2)c1 [PD 168,077 maleate]",-0.217
3,NC(CO)C(=O)NNCc1ccc(O)c(O)c1O (configuration not stated) [Benserazide hydrochloride],-0.147
4,Fc1ccc([C@@H]2CCNC[C@H]2COc2ccc3c(c2)OCO3)cc1 [Paroxetine hydrochloride hemihydrate (MW = 374.83)],0.308
5,CC1COc2c(N3CCN(C)CC3)c(F)cc3c(=O)c(C(=O)O)cn1c23 (configuration not stated) [Ofloxacin],0.316
6,O=C(O)/C=C/c1cnc[nH]1 [4-Imidazoleacrylic acid],0.18
7,CC1(C)CCC2=C(O1)c1ccccc1C(=O)C2=O [beta-Lapachone],1.3
8,C[C@H](c1ccc(F)cc1CCCC(=O)O)N(c1cc(F)ccc1F)S(=O)(=O)c1ccc(Cl)cc1,0.476
9,Cn1cnc([N+](=O)[O-])c1Sc1ncnc2[nH]cnc12 [Azathioprine],0.496
10,O=C(CCCN1CCC(O)(c2cccc(C(F)(F)F)c2)CC1)c1ccc(F)cc1 [Trifluperidol hydrochloride],0.549
11,COc1ccccc1N1CCN(CCCNc2cc(=O)n(C)c(=O)n2C)CC1 [Urapidil hydrochloride],-0.071
12,COCC(=O)O[C@]1(CCN(C)CCCc2nc3ccccc3[nH]2)CCc2cc(F)ccc2[C@@H]1C(C)C [Mibefradil dihydrochloride],0.902
13,O=c1c2ccccc2nc2n1CCc1c-2[nH]c2ccccc12 [Rutaecarpine],0.0519
14,CN(C)c1ccccc1CN1CCCN(Cc2ccccc2N(C)C)C1c1ccncc1,0.598
15,O=C(O)CN(CCN(CC(=O)O)CC(=O)O)CCN(CC(=O)O)CC(=O)O [Diethylenetriaminepentaacetic acid],0.22
16,CC(C)(CO)Cc1cc(C(C)(C)C)c(O)c(C(C)(C)C)c1,0.391
17,C#CCN(C)CCCOc1ccc(Cl)cc1Cl [Clorgyline hydrochloride],0.701
18,CCCCCCCCCCCCCCSCC(=O)O [Tetradecylthioacetic acid],0.393
19,"CC(=O)/C(C)=N/O [2,3-Butanedione monoxime]",0.0773
20,CC(C)NCC(O)c1cc(O)cc(O)c1 (configuration not stated) [Metaproterenol hemisulfate],0.113
21,CC(N)C(=O)OC(C)(C)Cc1ccc(Cl)cc1 (configuration not stated) [Alaproclate hydrochloride],0.279

# Compounds listed so far containing fluorine:
row,Structure (SMILES),cFRET/donor change
7,O=C1CCCC(=O)C1C(=O)c1ccc(C(F)(F)F)cc1[N+](=O)[O-] [Nitisinone],0.0147
11,NS(=O)(=O)c1ccc(-n2nc(C(F)(F)F)cc2-c2ccc(Cl)cc2)cc1,0.219
4,Fc1ccc([C@@H]2CCNC[C@H]2COc2ccc3c(c2)OCO3)cc1 [Paroxetine hydrochloride hemihydrate (MW = 374.83)],0.308
5,CC1COc2c(N3CCN(C)CC3)c(F)cc3c(=O)c(C(=O)O)cn1c23 (configuration not stated) [Ofloxacin],0.316
8,C[C@H](c1ccc(F)cc1CCCC(=O)O)N(c1cc(F)ccc1F)S(=O)(=O)c1ccc(Cl)cc1,0.476
10,O=C(CCCN1CCC(O)(c2cccc(C(F)(F)F)c2)CC1)c1ccc(F)cc1 [Trifluperidol hydrochloride],0.549
12,COCC(=O)O[C@]1(CCN(C)CCCc2nc3ccccc3[nH]2)CCc2cc(F)ccc2[C@@H]1C(C)C [Mibefradil dihydrochloride],0.902

# More entries:

row,Structure (SMILES),cFRET/donor change
1,CC(=O)OCC1=C(C(=O)O)N2C(=O)[C@@H](NC(=O)Cc3cccs3)[C@H]2SC1 [Cephalothin sodium],0.57
2,Cc1nc2n(c(=O)c1CCN1CCC(c3noc4cc(F)ccc34)CC1)CCCC2O (configuration not stated) [Paliperidone],0.519
3,Cc1ccccc1C(OCCN(C)C)c1ccccc1 (configuration not stated) [Orphenadrine hydrochloride],0.148
4,"CC(C)NCC(O)c1ccc(O)c(O)c1 (single isomer, unassigned; (-)) [(-)-Isoproterenol hydrochloride]",0.53
5,COc1ccccc1N1CCN(CCCCNC(=O)c2ccc3ccccc3c2)CC1,0.0888
6,Cc1cnc(C(=O)NCCc2ccc(S(=O)(=O)NC(=O)NC3CCCCC3)cc2)cn1 [Glipizide],-0.0676
7,N=C(N)NCCCCN [Agmatine sulfate],0.125
8,C[C@H](CSC(=O)c1ccccc1)C(=O)N1C[C@@H](Sc2ccccc2)C[C@H]1C(=O)O [Zofenopril calcium],-0.00819
9,COc1ccc2c(c1)CC[C@@H]1[C@@H]2CC[C@]2(C)[C@@H](NCCCCCCN3C(=O)CCC3=O)CC[C@@H]12,0.325
10,CCCCNc1ccc(C(=O)OCCN(C)C)cc1 [Tetracaine hydrochloride],0.0894
11,O=C(O)C1(C(=O)O)CCC1.[NH2-].[NH2-].[Pt+2] [Carboplatin],0.357
12,COC(=O)C(N)Cc1ccc(Cl)cc1 (racemic) [DL-p-Chlorophenylalanine methyl ester hydrochloride],-0.089
13,"N[C@H](C(=O)O)[C@H]1C[C@@H]1C(=O)O [(2S,1'S,2'S)-2-(carboxycyclopropyl)glycine]",0.552
14,CCN1CCC[C@H]1CNC(=O)c1c(O)c(Cl)cc(Cl)c1OC [S(+)-Raclopride L-tartrate],0.365
15,O=C(O)c1cccnc1C(=O)O [Quinolinic acid],0.287
16,O=C(c1ccc(OCCCc2c[nH]cn2)cc1)C1CC1 [Ciproxifan hydrochloride],0.224
17,CC(C)[C@H](N)C(=O)OCC(CO)OCn1cnc2c(=O)[nH]c(N)nc21 (some centres not stated) [Valganciclovir hydrochloride hydrate],-0.064
18,CN1CCC[C@@H]1CCO[C@](C)(c1ccccc1)c1ccc(Cl)cc1 [Clemastine fumarate],0.421
19,CC[N+](CC)(CC)CCOc1cccc(OCC[N+](CC)(CC)CC)c1OCC[N+](CC)(CC)CC [Gallamine triethiodide],0.564
20,CCOC(=O)[N-]c1c[n+](N2CCOCC2)no1 [Molsidomine],0.0144
21,O=C(O)CCCCC1CCSS1 (racemic) [(±)-alpha-Lipoic Acid],0.0292

row,Structure (SMILES),cFRET/donor change
1,CC(C)(C)NCC(O)c1cc(O)cc(O)c1 (configuration not stated) [Terbutaline hemisulfate],0.442
2,C=C(c1ccc(C(=O)O)cc1)c1cc2c(cc1C)C(C)(C)CCC2(C)C [Bexarotene],0.499
3,CCCc1nn(C)c2c(=O)[nH]c(-c3cc(S(=O)(=O)N4CCN(C)CC4)ccc3OCC)nc12 [Sildenafil citrate salt],0.123
4,COc1cc(CNC(=O)CCCCCCC(C)C)ccc1O [Dihydrocapsaicin],0.743
5,CCCCS(=N)(=O)CCC(N)C(=O)O [L-Buthionine-sulfoximine],-0.0531
6,COc1cccc(OC)c1OCCNCC1CSc2ccccc2O1 (configuration not stated) [Benoxathian hydrochloride],0.382
7,COc1cc2nc(N3CCCN(C)CC3)nc(NC3CCN(Cc4ccccc4)CC3)c2cc1OC,0.186
8,NC1CONC1=O (racemic) [DL-Cycloserine],0.397
9,CN(C)CCCc1cc(C(=O)Nc2ccc(-c3ccncc3)cc2)ccc1O,0.377
10,CCC1(C)CC(=O)NC1=O (configuration not stated) [Ethosuximide],0.147
11,Cc1nc2c([nH]1)c(=O)n(C)c(=O)n2Cc1ccco1 [Furafylline],0.0581
12,CC(NCCc1ccc(O)cc1)C(O)c1ccc(O)cc1 (configuration not stated) [Ritodrine hydrochloride],-0.0849
13,"OC[C@H]1NC[C@@H](O)[C@@H]1O [1,4-Dideoxy-1,4-imino-D-arabinitol]",0.377
14,NS(=O)(=O)c1nn2cc(-c3ccccc3)nc2s1,-0.298
15,NCCCS(=O)(=O)O [3-Amino-1-propanesulfonic acid sodium],-2.05
16,"Clc1ccc(C(c2ccccc2Cl)C(Cl)Cl)cc1 (configuration not stated) [1-(2-Chlorophenyl)-1-(4-chlorophenyl)-2,2-dichloroethane]",0.237
17,CC(C)NNC(=O)c1ccncc1 [Iproniazid phosphate],-0.254
18,O=C(O)c1cc(=O)c2ccccc2[nH]1 [Kynurenic acid],-0.161
19,"O=c1cc(N2CCOCC2)oc2c(-c3ccccc3)cccc12 [LY-294,002 hydrochloride]",0.281
